Laboratory results from patent US4444754A, “Derivatives of clavulanic acid, a process for their preparation and their use” (Beecham Group Limited, priority 1978, dated 1984).

System: E. coli JT39 (Rtem)
Assay: in vitro MIC of ampicillin with and without the compound (synergy)
Format: cell-based
Conditions: Escherichia coli, read-out: in vitro MIC of ampicillin alone

Structure (SMILES): CC1(C)S[C@@H]2[C@H](NC(=O)[C@H](N)c3ccccc3)C(=O)N2[C@H]1C(=O)O [ampicillin]
- MIC: 2000 µg/mL
